# Screening data, single-dose tests

The filed quantity is “Percent Effect” (%).
The controls that fix the scale are not given in the record; negative values are as filed.
The compounds are a random part of those screened.
A dash means the value is not listed here; it may have been measured.

T. brucei: 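Whole-parasite assay of Trypanosoma brucei over 72 hours; the read-out is not stated. Concentration: 30 µM. Direction is inferred from retests: higher values go with stronger inhibition. Values scatter widely below zero; nearly all retest evidence comes from the higher of the two concentrations used. Of about 64,000 compounds tested this way, about 940 (1.5%) reached 50% or more in at least one test.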
Toxoplasma: 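Assay of Toxoplasma gondii numbers, read through their beta-galactosidase reporter with a colour substrate. Tested at 10 µM. Higher reads as fewer parasites (inferred from which compounds were picked for retests). About 67,000 compounds were tested under these conditions; 0.38% (about 260) showed 50% or more at least once.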

Compound,T. brucei,Toxoplasma
COc1ccc(F)c(CN2CCCC3(CCN(C(=O)CSC)C3)C2)c1 (stereo not given),-31.91,2.11
O=C(CN1CCCS1(=O)=O)Nc1ccc(OC(F)F)cc1,-37.17,3.22
CCC1CN(Cc2nc(C(C)C)no2)CCC(=O)N1Cc1ccccc1 (stereo not given),14.08,3.665
[H][C@]12CCCCN1CCC[C@@]2(O)Cn1cnc2cc(C)c(C)cc21,2.899,9.251
O=C(COC1CCCCC1)Nc1ccn(Cc2ccccn2)n1,2.515,-16.58
CC(C)C(=O)N1CCCC(c2cncc(Oc3cccnc3)n2)C1 (stereo not given),-8.927,-23.14
COCc1noc(-c2ccc(N(C)Cc3cn(C)nc3C)nc2)n1,-19.55,17.6
COCc1ncn2c1CN(S(=O)(=O)c1cccs1)CCC2,-14.36,0.6197
CC(C)CN1CC(C(=O)NCCc2ccc(OC(F)F)cc2)CC1=O (stereo not given),-2.119,-2.406
O=C(CN1CCOc2ccc(Cl)cc21)NCCCn1ccnc1,11.7,-1.469
CN(C)CCOCC1CN(CC2CCOCC2)Cc2nnn(C)c21.O=C(O)C(F)(F)F.O=C(O)C(F)(F)F (stereo not given),-27.48,-0.7974
CN(C)c1cc(C(=O)N2CCCCC2)ccn1,3.673,21.52
CN(C)c1ccnc(-c2ccnc3c2ccn3C)n1,-89.35,23.73
CN(Cc1ccsc1)C(=O)Nc1ccc(S(C)(=O)=O)cc1,-,-0.9466
O=C(COCC1CCCCO1)N1CCN(Cc2ccccc2F)C(=O)C1 (stereo not given),-8.13,5.821
CN(C)c1ncnc2c1CCN(c1ccccc1)CC2,-62.34,-4.662
CCSCCC(=O)Nc1ncn(Cc2ccccc2)n1,-23.13,-
O=C(Cc1ccc2c(c1)OCCO2)N1CCCC(n2cncn2)C1 (stereo not given),7.035,-5.327
N#Cc1cccnc1NCCNC(=O)N1CCCC(N2CCCC2)C1 (stereo not given),-30.38,-1.643
[H][C@@]12CNCC[C@]1(O)CCN(C(=O)Cc1cc(F)ccc1C)C2,-4.437,6.008
CCC(=O)NCC(=O)NC(Cc1ccccc1)c1sccc1C (stereo not given),1.146,-2.498
CC(=O)N1CCC(C(=O)Nc2nc(C3CC3)cs2)CC1,-51.96,5.918
CS(=O)(=O)N1CCCC12CCCN(C(=O)c1ccno1)C2 (stereo not given),-76.96,-0.8087
Cc1cnc(N2CCCC(c3ccccc3)C2)nc1-c1ncnn1C (stereo not given),-29.87,5.548
O=C(CCCOc1ccccc1)N1CCCC(n2cncn2)C1 (stereo not given),-14.03,-4.46
CC(C(=O)N1CCCC1)N1CCC(c2nccn2CC2CCC2)CC1 (stereo not given),43.43,-4.473
CN(C)C(CNC(=O)c1cccc(-n2cnnn2)c1)c1ccccc1Cl (stereo not given),-45.86,0.8758
CCc1cccc(-n2nnc(C(=O)O)c2-c2ccncc2)c1,-10.5,10.34
CC(C)c1cc(C(=O)N(C)Cc2cccc3ncccc23)n(C)n1,13.78,-2.929
c1ccc2oc(N3CCCC3Cn3cncn3)nc2c1 (stereo not given),-3.08,-17.17
c1ccc(CC2(CNCc3ncc[nH]3)CCC2)cc1,1.615,-3.001
Cl.Fc1ccc(CN2CCC(c3n[nH]c4ncccc34)CC2)cc1F,-84.54,-8.106
CC1(C)CC(=O)c2cnc3nc(N4CCCC4)[nH]c(=O)c3c2C1,-4.236,-8.586
COc1ccc2nc(C3CC3)cc(C(=O)NCC(=O)N(C)C)c2c1,-30.46,4.423
COCC(=O)N[C@H](C)c1c(-c2ccc(OC)cc2)noc1C(=O)O,-4.323,-2.45
Cc1ccnc(NCc2cn3c(C)csc3n2)n1,6.382,-8.171
CN1CCC(N(CCc2ccccc2)Cc2noc(C3CC3)n2)CC1,-,-34.5
COc1ccc(NC(=O)CSc2nc(C)c(C)c(C)c2C#N)cn1,-15.71,-0.1142
CC1CS(=O)(=O)CCN1Cc1ccccc1N(C)C (stereo not given),10.81,-14.76
CCCN1CCC(NC(=O)c2csc(C)c2-c2ccc(C)cc2)CC1,4.606,-0.609
O=C(NCC(=O)N1CCCC(n2cncn2)C1)OCc1ccccc1 (stereo not given),-8.791,5.392
Cc1nn(C)c(C)c1CNCc1ccnc(N2CCOCC2)c1,-14.5,0.6187
CC(=O)c1ccc(N2CCC3(CCC(=O)N(CCCO)C3)CC2)nc1,-66.23,3.329
Cc1nonc1C(=O)N1CCc2c(ncn2CCc2ccccc2)C1,-3.524,-7.073
Cn1ccnc1CN1CCOC(C)(C(=O)N2CCOCC2)C1 (stereo not given),2.773,3.728
F[C@@H]1CN(C2CCC2)C[C@@H]1OCc1nc2ncccc2[nH]1,-50.74,-6.268
CC(CN1CCCC1=O)NC(=O)Nc1ccccc1Cn1cccn1 (stereo not given),-,-5.951
O=C(O)C(F)(F)F.[H][C@]12CCN(C(=O)CC3CC3)[C@@]1([H])CC[C@H](COCc1cccc(C)n1)O2,22.76,-2.052
CCc1nc(C2CCCN2Cc2nnc(CC)o2)no1 (stereo not given),13.52,0.8107
CN(C)CCOCC1CN(C(=O)c2cscn2)Cc2ccnn2C1 (stereo not given),-15.88,5.746
Cn1c2c(ccc1=O)CC(NS(C)(=O)=O)CC2 (stereo not given),-7.082,-0.2773
COCc1ccc(C(=O)N(CCC#N)Cc2ccccn2)cc1,32.17,5.581
CCc1noc(CN2CCN(C(=O)OC(C)(C)C)C(C)C2)n1 (stereo not given),-56.13,2.524
[H][C@@]12CCN(C(=O)c3cnc(CC)nc3)C[C@@]([H])(CC1)N2C,8.691,-9.511
CC(=O)Nc1ccc2c(c1)C1(CCOCC1)C(=O)N2c1ccsc1,-,-4.506
Fc1ccc2[nH]c(C3CCCN3Cc3c[nH]cn3)nc2c1 (stereo not given),-57.24,31.73
Cc1cc(NC(=O)CN2CCc3nn(C)c(=O)cc3C2)no1,-21.94,14.01
O=C(Cc1ccccc1)NC[C@H]1Cn2ccnc2CO1,-3.392,-8.228
OC1(CNc2ccc(Br)cn2)CCC1,-45.12,-2.06
COc1c(CNC2CCOc3ccccc32)c(C)nn1C (stereo not given),-28.81,-15.59
O=C(O)C(F)(F)F.[H][C@@]12CCN(c3ncccn3)[C@@]1([H])CCN2S(=O)(=O)c1cccc(F)c1,-77.96,2.926
CCN(C)S(=O)(=O)NCC(C)(O)c1ccsc1 (stereo not given),-6.523,9.744
CC(C)(C)NC(=O)CN1CCCN(c2ccc(C#N)cn2)CC1,-9.376,-21.46
Cc1nc(Cc2ccccc2)nc2sc(C(=O)O)c(C)c12,-53.62,-
O=C1CCCN1Cc1nc(-c2ccsc2)no1,-8.112,4.592
Cc1nc(CN2CCCC(N(C)Cc3nc(CC(C)C)no3)C2)no1 (stereo not given),-1.161,5.211
COCC(O)CNC(=O)Nc1ccc(Cl)cc1-n1cccc1 (stereo not given),-21.06,0.9744
Cc1cc(C)n(CC2CCCCN2C(=O)c2ccc3c(c2)COC3)n1 (stereo not given),12.9,7.369
O=C(c1cccc(NCCOc2ccc(F)cc2)c1)N1CCOCC1,-39.46,5.976
Cn1nccc1CNC(=O)C1CCCCC1,-,8.726
CC(=O)N(Cc1ncc(C)o1)C1CCN(Cc2sc(C)nc2C)C1 (stereo not given),-,9.019
O=C(CN1CCOCC1)N1CCC(c2cc(N3CCCC3)ncn2)CC1,-39.63,-0.1248
NC(=O)c1c(SCCN2CCOCC2)sc2c(O)cc(=O)[nH]c12,-21.39,-10.16
COc1ccc(N2CCN(C(=O)COc3nccc(C)n3)CC2)cc1,12.67,24.75
O=C(O)C(F)(F)F.O=C(O)C(F)(F)F.O=C1CC(c2ccncc2)C2(CCN(Cc3ccc(F)cc3)CC2)N1 (stereo not given),27.71,-1.249
CCc1ccc(Cn2nccc2NC(=O)C2CCS(=O)(=O)C2)cc1 (stereo not given),-15.24,16.07
COc1cccc(NC(=O)CN(C(C)C)C2CC2)c1,-53.29,-20.16
CCOc1ccccc1CC(=O)N1C[C@@H](C(=O)O)[C@H](c2ccncc2)C1,-34.46,32.24
COc1cccc2ccc(CN3CCN(c4cccnc4)CC3)nc12,-15.38,4.5
CCc1cc(C(=O)N2CCC(C3CCN(c4ncccn4)CC3)C2)on1 (stereo not given),-47.57,-5.361
CN(C)c1ncc(-c2ccncc2)c(CCNC(=O)C2CC2)n1,6.09,-0.6107

Repeated from the top, 9 entries:

{"compound": "COc1ccc(F)c(CN2CCCC3(CCN(C(=O)CSC)C3)C2)c1", "stereo": "stereo not given", "T. brucei": -31.91, "Toxoplasma": 2.11}
{"compound": "O=C(CN1CCCS1(=O)=O)Nc1ccc(OC(F)F)cc1", "T. brucei": -37.17, "Toxoplasma": 3.22}
{"compound": "CCC1CN(Cc2nc(C(C)C)no2)CCC(=O)N1Cc1ccccc1", "stereo": "stereo not given", "T. brucei": 14.08, "Toxoplasma": 3.665}
{"compound": "[H][C@]12CCCCN1CCC[C@@]2(O)Cn1cnc2cc(C)c(C)cc21", "T. brucei": 2.899, "Toxoplasma": 9.251}
{"compound": "O=C(COC1CCCCC1)Nc1ccn(Cc2ccccn2)n1", "T. brucei": 2.515, "Toxoplasma": -16.58}
{"compound": "CC(C)C(=O)N1CCCC(c2cncc(Oc3cccnc3)n2)C1", "stereo": "stereo not given", "T. brucei": -8.927, "Toxoplasma": -23.14}
{"compound": "COCc1noc(-c2ccc(N(C)Cc3cn(C)nc3C)nc2)n1", "T. brucei": -19.55, "Toxoplasma": 17.6}
{"compound": "COCc1ncn2c1CN(S(=O)(=O)c1cccs1)CCC2", "T. brucei": -14.36, "Toxoplasma": 0.6197}
{"compound": "CC(C)CN1CC(C(=O)NCCc2ccc(OC(F)F)cc2)CC1=O", "stereo": "stereo not given", "T. brucei": -2.119, "Toxoplasma": -2.406}

From ChEMBL document CHEMBL3988442, “University of Dundee, Small-Polar-MMV Screening Library” (2021).